In US20260152529 (published 2026):

Assay: general procedure: solution-phase peptide synthesis
Details: for cyclisation yield: cyclisation step, HPLC internal standard
[1] = late stage modification step, qNMR

Substance: (2S)-1-[(2S)-2-[[2-[[(2S)-2-[benzyloxycarbonyl(ethyl)amino]-3-(p-tolyl)propanoyl]-methyl-amino]acetyl]amino]-4-[3,5-difluoro-4-(trifluoromethyl)phenyl]butanoyl]pyrrolidine-2-carboxylic acid
- step yield [1]: 77.5%

Substance: (5S,8S,11S,15S,18S,23aS,29S,35S,37aS)-8-((S)-sec-butyl)-18-cyclopentyl-29-(3,5-difluoro-4-(trifluoromethyl)phenethyl)-36-ethyl-11-isobutyl-N,N,5,6,12,16,19,33-octamethyl-35-(4-methylbenzyl)-4,7,10,13,17,20,23,28,31,34,37-undecaoxotetratriacontahydro-2H,4H-spiro
- cyclisation yield (run 1): 84%
- cyclisation yield (run 2): 86%
- cyclisation yield (run 3): 84%
- cyclisation yield (run 4): 82%
- cyclisation yield (run 5): 71%
- cyclisation yield (run 6): 83%
- cyclisation yield (run 7): 88%
- cyclisation yield (run 8): 83%

Substance: tert-butyl 2-[[(2S)-2-[[(2S)-1-[(2S)-2-[[(2S,3S)-2-(benzyloxycarbonylamino)-3-methyl-pentanoyl]-methyl-amino]propanoyl]azetidine-2-carbonyl]-ethyl-amino]-3-(p-tolyl)propanoyl]-methyl-amino]acetate
- step yield (coupling step, HPLC with standard): 90%
- step yield (coupling step, run 1): 61.9%
- step yield (coupling step, run 2): 68.6%
- step yield (coupling step, run 3): 61.4%

Substance: tert-butyl (2S)-1-[(2S)-2-[methyl-[(2S,3S)-3-methyl-2-[[(2S)-4-methyl-2-(methylamino)pentanoyl]amino]pentanoyl]amino]propanoyl]azetidine-2-carboxylate
- step yield [1]: 85.4%

Substance: tert-butyl (2S)-1-[(2S)-2-[methyl-[(2S,3S)-3-methyl-2-[[(2S)-4-methyl-2-[methyl(2-trimethylsilylethoxycarbonyl)amino]pentanoyl]amino]pentanoyl]amino]propanoyl]azetidine-2-carboxylate
- step yield (coupling step, qNMR): 88.1%
